Here are results for 58 compounds from PubChem BioAssay AID1671190 (National Center for Advancing Translational Sciences (NCATS), 2021).

By UniProt entry, the sequences of proteins in these tests, tags left out. Where a name states a change or a piece, a line headed by the entry shows the natural chain unless it says otherwise.
UniProt P18054: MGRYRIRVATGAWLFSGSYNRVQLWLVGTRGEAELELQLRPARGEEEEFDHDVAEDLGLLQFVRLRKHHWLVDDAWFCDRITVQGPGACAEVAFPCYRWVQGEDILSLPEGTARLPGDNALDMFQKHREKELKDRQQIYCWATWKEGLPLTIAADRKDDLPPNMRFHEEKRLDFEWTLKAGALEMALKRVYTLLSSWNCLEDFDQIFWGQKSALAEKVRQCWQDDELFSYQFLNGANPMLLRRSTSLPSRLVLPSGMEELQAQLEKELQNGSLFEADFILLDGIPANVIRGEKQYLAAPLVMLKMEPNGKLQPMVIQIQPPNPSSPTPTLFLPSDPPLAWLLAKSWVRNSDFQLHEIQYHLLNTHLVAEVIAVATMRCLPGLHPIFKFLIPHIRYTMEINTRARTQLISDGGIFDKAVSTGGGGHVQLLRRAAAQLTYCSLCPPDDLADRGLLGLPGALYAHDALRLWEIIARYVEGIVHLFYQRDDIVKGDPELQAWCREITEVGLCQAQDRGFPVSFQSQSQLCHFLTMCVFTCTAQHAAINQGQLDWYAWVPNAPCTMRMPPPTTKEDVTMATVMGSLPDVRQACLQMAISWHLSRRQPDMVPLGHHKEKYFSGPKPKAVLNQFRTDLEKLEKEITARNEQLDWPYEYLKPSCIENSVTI

The campaign covered roughly 580,000 compounds. About 6,100 (1.1%) were called active. About 15% were inconclusive and are not listed. Calls follow the shape of the dose curve; as a rule, active = well fitted inhibition curve with a large enough effect; inconclusive = small, poorly fitted or top-dose-only effect, or another doubt; inactive = no such curve, though single readings can be large or run the other way. The entries are a selection whose mix differs from that of the whole data set. Where no call is shown, the source filed none.
% is scaled to controls: 0 for no effect and ±100 for the full control effect; potency is read from the fitted curve at half-maximal effect.

The target in this assay is Polyunsaturated fatty acid lipoxygenase ALOX12 (Homo sapiens) (UniProt P18054). The experiment in a line: Primary qHTS assay for inhibitors of human arachidonate 12S-lipoxygenase (ALOX12): Round 2. The note with it: purified 12hLO, xylenol orange hydroperoxide absorbance; activity change, negative = inhibition: at 0.00344 µM (top of the series). The method in brief:
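Purified human 12hLO at 150 nM in 25 mM Hepes, 0.01% Triton X-100, pH 7.0, preincubated 15 min at room temperature with compound. Reaction started with 40 uM arachidonic acid, 30 min at room temperature. Hydroperoxide measured by Fe-xylenol orange, 573/405 nm absorbance ratio.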
Regarding `NCCCC[C@H](N[C@@H](CCc1ccccc1)C(=O)O)C(=O)N1CCC[C@H]1C(=O)O`, the activity change, negative = inhibition came out at 16%. As to `COC1=C(OC)C(=O)C(CCCCCCCCCCO)=C(C)C1=O`, the activity change, negative = inhibition is 16.5%. Same read-out and setting: with `CC(C)n1c(/C=C/[C@@H](O)C[C@@H](O)CC(=O)O)c(-c2ccc(F)cc2)c2ccccc21` the figure was 33.4%; with `CCNC(=O)N1CCN(CCCC(c2ccc(F)cc2)c2ccc(F)cc2)CC1`, -13.2%. In the case of `CCCNC(=O)N[C@@H]1CCC[C@@H](C(=O)N(CC)CC)CC(=O)N(C)C1`, the Potency is active: 39.8 µM. For `CC(=O)C1=CCC(c2ccc(C)o2)N(S(=O)(=O)c2ccc(C)cc2)C1` (centres undefined), the Potency is active: 10 µM.

Consider `COc1cc2c(cc1OC)-c1cc(=Nc3c(C)cc(C)cc3C)n(C)c(=O)n1CC2`, for which the activity change, negative = inhibition is -0.655%. Turning to `CCOC(=O)OC(C)OC(=O)[C@@H]1N2C(=O)[C@@H](NC(=O)[C@H](N)c3ccccc3)[C@H]2SC1(C)C` (some centres undefined), the activity change, negative = inhibition was -1.79%. As for `CC1(C)Cc2c(ccc3ccccc23)/C(=C/C#N)N1`, the Potency was active: 39.8 µM. For `Cc1c(OCC(F)(F)F)ccnc1CS(=O)c1nc2ccccc2[nH]1` (centres undefined), the Potency is active: 12.2 µM and the activity change, negative = inhibition is -4.58%. Take `COc1ccc(/C=C2\SC(=S)N(CC(=O)OCC(=O)Nc3cc(Cl)cc(Cl)c3)C2=O)cc1`: the Potency is active: 39.8 µM. As to `O=C1NC(=O)[C@@]2(CCOc3ccc(F)cc32)N1`, the activity change, negative = inhibition was determined as 16.9%. `O=C1c2ccccc2NC(c2ccc(-c3ccc(C(F)(F)F)cc3)o2)N1O` (centres undefined): the Potency is active: 28.2 µM. The same measure, in the same setting: for `COc1cccc(C2=Cc3ccc(F)cc3C(CC(C)=O)N2c2ccc(C#CC3(O)CCCCC3)cc2)c1` (centres undefined) the value was active: 15.8 µM; for `FC(F)(F)c1cccc(/C=N/Nc2ccc(Cl)cc2)c1`, active: 7.08 µM. Regarding `Nc1nc(Cl)nc2c1ncn2[C@@H]1O[C@H](CO)[C@@H](O)[C@@H]1F`, the activity change, negative = inhibition was -24.7%. On the same count and under the same terms, for `CN1CC[C@H](c2c(O)cc(O)c3c(=O)cc(-c4ccccc4Cl)oc23)[C@H](O)C1` the value was 24%; for `O=C(NCN1CCOCC1)c1cnccn1`, -9.96%.

`O=C(O)Cn1c(=O)n(Cc2ccc(Br)cc2F)c(=O)c2ccc(Cl)cc21`: the activity change, negative = inhibition was -12.6%. For the compound `COc1ccc2c(c1)CC/C(=C\c1ccc(Br)o1)C2=O`, the Potency was active: 22.4 µM.

Consider `Cc1ccc(NC(=O)c2cc(-c3ccc[nH]3)n[nH]2)cc1F`, for which the Potency is active: 10 µM.

Turning to `O=C(O)Cc1csc(-c2ccc(Cl)cc2)n1`, the activity change, negative = inhibition was 6.74%. For the compound `CCn1c(CCCOc2ccc(Cl)cc2Cl)n[nH]c1=S`, the Potency was active: 25.1 µM. Still for that read-out and setting: for `Cc1ccc(NS(=O)(=O)c2cc([N+](=O)[O-])ccc2NNC(=S)Nc2cc(C)ccc2C)c(C)c1` the value was active: 25.1 µM. For the compound `CCOc1cc2cc(C(=O)c3ccccc3O)cnc2cc1OC`, the Potency is active: 8.91 µM. Consider `CCCCCN(CCCOC)C(=O)C(CCC(=O)O)NC(=O)c1ccc(Cl)c(Cl)c1` (centres undefined), for which the activity change, negative = inhibition was -26.8%. For the compound `Cc1ccc(NC2=C(Cl)C(=O)OC2OC(=O)c2ccc(C)cc2)cc1` (centres undefined), the Potency is active: 7.94 µM. As to `NC(CO)(CO)CO`, the activity change, negative = inhibition came out at 20.6%. On the same count and under the same terms, with `CN(C)CCN(Cc1cccs1)c1ccccn1` the figure was -24.1%; with `COc1ccc2cc1Oc1cc3c(cc1OC)CC[N+](C)(C)[C@H]3Cc1ccc(cc1)Oc1c(OC)c(OC)cc3c1[C@@H](C2)[N+](C)(C)CC3`, -55.3%; with `Clc1ccc(C(Cn2ccnc2)OCc2c(Cl)cccc2Cl)c(Cl)c1` (centres undefined), 10.6%. As for `CO/N=C(/C(=O)N[C@@H]1C(=O)N2C(C(=O)OCOC(=O)C(C)(C)C)=C(C)CS[C@H]12)c1csc(N)n1`, the activity change, negative = inhibition is -2.9%. Still for that read-out and setting: for `OCCCc1ccccc1` the value was -32.6%; for `NCCS(=O)(=O)O`, 16.9%.

Regarding `CCCCS(=O)(=O)N[C@@H](Cc1ccc(OCCCCC2CCNCC2)cc1)C(=O)O`, the activity change, negative = inhibition was -8.69%.

Turning to `NNC(=S)Nc1ccc(Br)cc1`, the Potency was active: 7.08 µM. As for `Cc1ccc(S(=O)(=O)NC(=O)NN2CC3CCCC3C2)cc1` (centres undefined), the activity change, negative = inhibition is 31.5%.

`CCCCCC(C)N` (centres undefined): the activity change, negative = inhibition is 49.2%. Same read-out and setting: with `COc1ccc2cc(CCC(C)=O)ccc2c1` the figure was 19%; with `NC(=O)NC1N=C([O][Al])NC1=O` (centres undefined), 1.32%. On to `CCC(NC(=O)C1CC1)c1ccc(C)cc1` (centres undefined), for which the Potency is active: 5.01 µM. As to `C#CCN(C)Cc1ccccc1`, the activity change, negative = inhibition was -21.1%. As to `O=C(CCCN1CC=C(n2c(=O)[nH]c3ccccc32)CC1)c1ccc(F)cc1`, the activity change, negative = inhibition is -8.31%. With `C[C@@]12C(=O)OC(=O)[C@]1(C)C1CCC2O1`, the activity change, negative = inhibition is 16.7%. On the same count and under the same terms, for `Cc1ncc([N+](=O)[O-])n1CCO` the value was -6.16%. Same read-out and setting: with `CCN(CC)CCSC(=O)C(c1ccccc1)c1ccccc1` the figure was 18.7%. The same measure, in the same setting: with `CCN(Cc1ccncc1)C(=O)C(CO)c1ccccc1` (centres undefined) the figure was 10%. As for `COc1ccc(CCN2CCC(Nc3nc4ccccc4n3Cc3ccc(F)cc3)CC2)cc1`, the activity change, negative = inhibition was 18.1%.

For the compound `C/C(=N/Nc1ccccc1)c1ccc([N+](=O)[O-])cc1`, the Potency is active: 1.58 µM. The same measure, in the same setting: for `COC(=O)[C@H]1[C@H](CO)[C@H]2Cn3c(ccc(Br)c3=O)[C@H]2N1C(=O)c1ccccn1` the value was active: 0.794 µM. In the case of `COCc1c(C(C)C)nc(C(C)C)c(/C=C/[C@@H](O)C[C@@H](O)CC(=O)O)c1-c1ccc(F)cc1`, the activity change, negative = inhibition worked out at 10.1%.

In the case of `Cc1cnc(CNc2ccnc(-c3ccc(C(=O)N(C)C)cc3)n2)cn1`, the Potency is active: 35.5 µM. For the compound `Cc1ccc(CNC(=S)Nc2ccc3c(c2)c(=O)n(C)n3Cc2cccc(C(F)(F)F)c2)cc1`, the Potency is active: 17.8 µM.

For `CC(C)C[C@H](NC(=O)[C@H](CCc1ccccc1)NC(=O)CN1CCOCC1)C(=O)N[C@@H](Cc1ccccc1)C(=O)N[C@@H](CC(C)C)C(=O)[C@@]1(C)CO1`, the activity change, negative = inhibition stood at 25.3%. For `Cc1ccc(-c2cc(C(=O)N3CCN(c4ccc(F)cc4)CC3)c3ccccc3n2)o1`, the Potency is active: 14.1 µM. With `O=C(O)c1[nH]n(-c2ccc(S(=O)(=O)O)cc2)c(=O)c1N=Nc1ccc(S(=O)(=O)O)cc1`, the activity change, negative = inhibition is -21.5%.

Regarding `NCC1CCC(C(=O)Oc2ccc(CCC(=O)O)cc2)CC1` (centres undefined), the activity change, negative = inhibition was found to be 35.3%. `Oc1ccc(/C=N/N(Cc2ccccc2)c2ccccc2)c(O)c1O`: the Potency was active: 39.8 µM.
